# Record: PubChem BioAssay AID1053208 (Peter MacCallum Cancer Centre, 2014)
# Test: 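Find knock-downs that sensitise mouse osteosarcoma cells to doxorubicin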 (primary screen)
# Cells: mouse osteosarcoma cells, early-passage culture from an engineered mouse model of fibroblastic bone tumour
# Knock-down reagent: siRNA pool against mouse genes, 40 nM
# Duration: about 120 h (48 h before drug, then 72 h with drug)
# Challenge: doxorubicin 100 nM for 72 h, roughly 30-40% inhibitory dose
# Read-out: 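Luminescent ATP signal taken as viability with or without 100 nM doxorubicin for 72 h; mean of two wells set against non-targeting siRNA and turned into robust z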
# Scale: viability z-score with doxorubicin and doxorubicin viability vs non-targeting: higher = more viable cells under doxorubicin; viability z-score without drug: higher = more viable cells with knock-down alone; z-score of drug to no-drug ratio: higher = less drug sensitisation by knock-down
# Rule for the call: 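a pool counts as active when its viability z-score with doxorubicin is -2 or below and its z-score without drug lies between -2 and 2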
# Shown is one part, drawn at random, of about 17,000 deposited reagents. Over the whole deposit, 788 (4.7%) are marked active. 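Calls rest on z-score classes alone; an extra cut-off of viability at most 70% of control was not applied to them.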 Reagents against one gene are numbered here. A reagent listed more than once was tested more than once; the source does not tell the runs apart.
Target gene,reagent no.,combined z-score class,viability z-score with doxorubicin,viability z-score without drug,z-score of drug to no-drug ratio,doxorubicin viability vs non-targeting,outcome
Vmn1r58 (GeneID 81014),1,no change with or without drug,0.34,0.34,0.22,0.97,inactive
Cubn (GeneID 65969),1,no change with or without drug,0.45,-0.84,1.24,0.98,inactive
Odc1 (GeneID 18263),1,no change with or without drug,0.9,0.17,0.9,1.02,inactive
Acnat2 (GeneID 209186),1,low cell count with doxorubicin only,-2.02,-0.51,-1.69,0.76,active
Ppp1r3c (GeneID 53412),1,no change with or without drug,0.34,0.84,-0.11,0.97,inactive
Vmn1r189 (GeneID 252906),1,high cell count with doxorubicin only,2.02,0.51,1.8,1.12,inactive
Col4a1 (GeneID 12826),1,no change with or without drug,-0.11,0,0,0.93,inactive
Dll1 (GeneID 13388),1,no change with or without drug,0.56,0.51,0.34,0.99,inactive
Tssk2 (GeneID 22115),1,no change with or without drug,-1.57,-1.01,-0.9,0.8,inactive
Pgghg (GeneID 212974),1,no change with or without drug,-0.9,0.34,-1.01,0.86,inactive
Pramel39-ps (GeneID 331195),1,no change with or without drug,-0.22,-1.01,0.56,0.92,inactive
Pou6f2 (GeneID 218030),1,no change with or without drug,0,0.67,-0.34,0.94,inactive
Or8h7 (GeneID 258840),1,no change with or without drug,-0.67,-0.84,0,0.88,inactive
Exoc5 (GeneID 105504),1,no change with or without drug,-1.24,-1.52,-0.11,0.83,inactive
Ndufb5 (GeneID 66046),1,no change with or without drug,0.45,-0.84,1.24,0.98,inactive
S100a11 (GeneID 20195),1,no change with or without drug,0.34,0.34,0.22,0.97,inactive
Stc2 (GeneID 20856),1,no change with or without drug,0.79,0.84,0.34,1.01,inactive
Zfp110 (GeneID 65020),1,no change with or without drug,-0.67,-1.18,0.22,0.88,inactive
Rad54l2 (GeneID 81000),1,no change with or without drug,-0.67,-0.84,0,0.88,inactive
Mea1 (GeneID 17256),1,no change with or without drug,0.34,1.01,-0.22,0.97,inactive
Pold2 (GeneID 18972),1,low cell count with doxorubicin only,-5.17,-1.85,-4.61,0.48,active
Mrnip (GeneID 68067),1,no change with or without drug,-0.45,-0.17,-0.22,0.9,inactive
Spen (GeneID 56381),1,no change with or without drug,-1.24,0.51,-1.46,0.83,inactive
Adora3 (GeneID 11542),1,no change with or without drug,0,0.34,-0.11,0.94,inactive
Adora3 (GeneID 11542),2,no change with or without drug,0.34,-0.67,1.01,0.97,inactive
Il1rapl2 (GeneID 60367),1,no change with or without drug,-0.56,-1.18,0.34,0.89,inactive
Upp1 (GeneID 22271),1,no change with or without drug,-0.45,-1.01,0.34,0.9,inactive
Phxr2 (GeneID 18687),1,no change with or without drug,0.56,0.34,0.45,0.99,inactive
Tsga10 (GeneID 211484),1,no change with or without drug,1.24,-0.17,1.57,1.05,inactive
Bloc1s5 (GeneID 17828),1,no change with or without drug,0.45,-0.51,1.01,0.98,inactive
Hmga2 (GeneID 15364),1,no change with or without drug,-0.45,-1.18,0.45,0.9,inactive
Gdap2 (GeneID 14547),1,no change with or without drug,0.56,1.52,-0.34,0.99,inactive
Mmp20 (GeneID 30800),1,no change with or without drug,0.22,0.84,-0.22,0.96,inactive
Nfatc1 (GeneID 18018),1,no change with or without drug,1.69,1.52,0.79,1.09,inactive
Jmjd8 (GeneID 72106),1,no change with or without drug,1.01,1.35,0.22,1.03,inactive
Dapk1 (GeneID 69635),1,no change with or without drug,-0.67,-1.18,0.22,0.88,inactive
Fam13b (GeneID 225358),1,no change with or without drug,-0.45,1.18,-1.12,0.9,inactive
Guca1a (GeneID 14913),1,no change with or without drug,1.57,0.84,1.12,1.08,inactive
Sox2 (GeneID 20674),1,no change with or without drug,0.34,-0.51,0.79,0.97,inactive
Or4c105 (GeneID 258454),1,no change with or without drug,0,-0.84,0.67,0.94,inactive
Cpeb2 (GeneID 231207),1,no change with or without drug,0,0.17,0,0.94,inactive
Gm5082 (GeneID 328231),1,no change with or without drug,-0.22,1.35,-1.01,0.92,inactive
Gdf9 (GeneID 14566),1,no change with or without drug,-1.12,-0.67,-0.67,0.84,inactive
Mat2b (GeneID 108645),1,no change with or without drug,-1.35,0.17,-1.46,0.82,inactive
4930433N12Rik (GeneID 114673),1,no change with or without drug,-0.45,1.35,-1.24,0.9,inactive
Grpel1 (GeneID 17713),1,no change with or without drug,-1.35,-1.18,-0.56,0.82,inactive
Cmtm8 (GeneID 70031),1,no change with or without drug,-1.8,-1.18,-1.01,0.78,inactive
Vmn1r26 (GeneID 171190),1,no change with or without drug,0.79,0.34,0.67,1.01,inactive
Stk40 (GeneID 74178),1,no change with or without drug,-0.34,-1.18,0.56,0.91,inactive
Stk40 (GeneID 74178),1,no change with or without drug,-0.56,0.51,-0.79,0.89,inactive

Reagents listed above called active, once more:
Target gene,reagent no.,combined z-score class,viability z-score with doxorubicin,viability z-score without drug,z-score of drug to no-drug ratio,doxorubicin viability vs non-targeting,outcome
Acnat2 (GeneID 209186),1,low cell count with doxorubicin only,-2.02,-0.51,-1.69,0.76,active
Pold2 (GeneID 18972),1,low cell count with doxorubicin only,-5.17,-1.85,-4.61,0.48,active
